Where “and” joins values, the source holds several entries; their conditions need not be identical. Identical values can stand only once. The shares of active, inactive and inconclusive entries below differ from those in the screen. Potencies beside an inconclusive call are fits to weak or partial responses and may not hold up. A structure can be active in one record and inactive in another. Calls of active or inactive are those of the source. How the source made its calls: active means hit-call score of the fitted dose curve at least 0.9, where 1 is the maximum; inconclusive means response in the unintended direction; inactive means score below 0.9.
Test system: not listed separately
Test: TOX21_p53_BLA_p3_viability: Viability Assessment in the Tox21 HCT-116 p53 Agonism Beta-lactamase Assay, Phase 3 (AID 2283593);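 further: cells exposed to compound for 16 h before reading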
Outline: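 Cellular ATP was quantified by CellTiter-Glo luminescence, read after 30 min at room temperature. Beforehand, HCT116 cells (4000/well) received compound 5 h post-seeding, 217-fold diluted from DMSO, then incubated 16 h at 37C.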

The chains behind the UniProt entries cited, without tags or fusion partners.
UniProt P04637, whole entry, looked up: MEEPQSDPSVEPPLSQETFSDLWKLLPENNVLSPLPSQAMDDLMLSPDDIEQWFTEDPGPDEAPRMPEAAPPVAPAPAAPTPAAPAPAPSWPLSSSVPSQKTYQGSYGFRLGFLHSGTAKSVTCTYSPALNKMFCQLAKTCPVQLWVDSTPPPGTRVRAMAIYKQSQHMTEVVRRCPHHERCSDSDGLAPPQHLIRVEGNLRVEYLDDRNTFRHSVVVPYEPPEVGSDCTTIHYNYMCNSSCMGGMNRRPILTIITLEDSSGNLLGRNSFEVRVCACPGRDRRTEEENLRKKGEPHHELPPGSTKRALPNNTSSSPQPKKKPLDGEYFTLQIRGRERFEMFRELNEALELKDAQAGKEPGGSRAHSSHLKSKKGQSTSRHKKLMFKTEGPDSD

Structure (SMILES) | AC50 | outcome
O=c1n(CC2CO2)c(=O)n(CC2CO2)c(=O)n1CC1CO1 (stereo not drawn) | active: 74.3 µM | 
CCCC(=O)OCCC(C)C | inconclusive: 46.1 µM | 
Cc1ccc(S(=O)(=O)NCl)cc1 | inconclusive: 23 µM | 
CCC(C)(C)C1CCC(=O)CC1 |  | inactive
CCCCOC(=O)CCCCCCCCC(=O)OCCCC |  | inactive
Cc1cccc(O)c1C | inconclusive: 84.9 µM | 
CCO[Si](C)(OCC)OCC | inconclusive: 46.1 µM | 
O=C1CCCC1 | inconclusive: 46.1 µM and inconclusive: 46.6 µM | 
CCC(C)(C)C(=O)O[C@H]1C[C@@H](C)C=C2C=C[C@H](C)[C@H](CC[C@@H]3C[C@@H](O)CC(=O)O3)[C@H]21 | active: 75.7 µM and inconclusive: 10.3 µM | 
C=C(C)C(=O)OCCC(F)(F)C(F)(F)C(F)(F)C(F)(F)C(F)(F)C(F)(F)F |  | inactive
NS(=O)(=O)c1cc2c(cc1Cl)NCNS2(=O)=O | inconclusive: 61.7 µM and inconclusive: 23 µM | inactive
COC(=O)c1ccc(O)cc1 | inconclusive: 46.5 µM and inconclusive: 23 µM | inactive
CCCCCCC(CCCCCCCCCCC(=O)OCC(COC(C)=O)OC(C)=O)OC(C)=O (stereo not drawn) | inconclusive: 43.1 µM | 
COc1ccc2[nH]cc(CCNC(C)=O)c2c1 | inconclusive: 31.1 µM | inactive
CCC(C)N(C)C(=O)c1cc2ccccc2c(-c2ccccc2Cl)n1 (stereo not drawn) |  | inactive
CCCCCCCCCCCCCCCCCCOS(=O)(=O)O | active: 66.9 µM | 
O=CCCCC=O | active: 83.5 µM and active: 84.6 µM | inactive

Biological target: Cellular tumor antigen p53 (Homo sapiens) (UniProt P04637)
Test: TOX21_p53_BLA_p3_ratio: Tox21 HCT-116 p53 Agonism Beta-lactamase Assay, Ratio, Phase 3 (AID 2283596)
Outline: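 Cells were seeded at 4000/well, rested 5 h at 37C, then dosed with DMSO compound solutions (217-fold dilution) for 16 h. CCF4-AM substrate was loaded for 2 h at room temperature, and the 460/530 nm emission ratio was fitted for gain of signal versus DMSO.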

Structure (SMILES) | AC50 | outcome
O=c1n(CC2CO2)c(=O)n(CC2CO2)c(=O)n1CC1CO1 (stereo not drawn) | active: 26.8 µM and active: 19.6 µM | 
CCCC(=O)OCCC(C)C |  | inactive
Cc1ccc(S(=O)(=O)NCl)cc1 | inconclusive: 48.3 µM and inconclusive: 23 µM | 
CC(=O)OCCOC(C)=O | active: 87.2 µM | 
CCCCOC(=O)CCCCCCCCC(=O)OCCCC | inconclusive: 46.1 µM | 
Cc1cccc(O)c1C | inconclusive: 47.2 µM | 
CC(C)c1cccc(O)c1 |  | inactive
O=C1CCCC1 | inconclusive: 86.4 µM | 
COC(=O)c1ccc(O)cc1 | inconclusive: 46.1 µM and inconclusive: 46.5 µM | 
CCCCCCC(CCCCCCCCCCC(=O)OCC(COC(C)=O)OC(C)=O)OC(C)=O (stereo not drawn) | inconclusive: 23 µM | 
COc1ccc2[nH]cc(CCNC(C)=O)c2c1 |  | inactive
CCC(C)N(C)C(=O)c1cc2ccccc2c(-c2ccccc2Cl)n1 (stereo not drawn) |  | inactive
CCCCCCCCCCCCCCCCCCOS(=O)(=O)O | active: 86.5 µM | 
O=CCCCC=O | active: 69.9 µM and active: 37 µM | 

Test system: not listed separately
Test: TOX21_p53_BLA_p4_viability: Viability Assessment in the Tox21 HCT-116 p53 Agonism Beta-lactamase Assay, Phase 4 (AID 2283597);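 further: hits lower the luminescence signal meaning cytotoxicity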
Outline: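 Readout: ATP luminescence (CellTiter-Glo), measured 30 min after reagent addition at RT. The reagent followed a 2 h CCF4-AM incubation, and the cells had been exposed to compound for 16 h at 37C.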

Structure (SMILES) | AC50 | outcome
O=c1n(CC2CO2)c(=O)n(CC2CO2)c(=O)n1CC1CO1 (stereo not drawn) | active: 51.2 µM and inconclusive: 23 µM | inactive
CCC(C)(C)C1CCC(=O)CC1 | inconclusive: 46.1 µM | 
CC(=O)OCCOC(C)=O | inconclusive: 2.27 µM | inactive
Cc1cccc(O)c1C | inconclusive: 47.2 µM and inconclusive: 81.2 µM | 
O=C1CCCC1 | inconclusive: 46.1 µM | 
CCC(C)(C)C(=O)O[C@H]1C[C@@H](C)C=C2C=C[C@H](C)[C@H](CC[C@@H]3C[C@@H](O)CC(=O)O3)[C@H]21 | active: 46.1 µM and inconclusive: 10.3 µM | 
NS(=O)(=O)c1cc2c(cc1Cl)NCNS2(=O)=O | inconclusive: 46.1 µM and inconclusive: 2.16 nM | 
COC(=O)c1ccc(O)cc1 | inconclusive: 46.1 µM and inconclusive: 23 µM | inactive
CCCCCCC(CCCCCCCCCCC(=O)OCC(COC(C)=O)OC(C)=O)OC(C)=O (stereo not drawn) | inconclusive: 5.9e-05 µM | 
COc1ccc2[nH]cc(CCNC(C)=O)c2c1 | inconclusive: 46.7 µM | 
NC(=O)NN=Cc1ccc([N+](=O)[O-])o1 |  | inactive
CCCCCCCCCCCCCCCCCCOS(=O)(=O)O |  | inactive
O=CCCCC=O | inconclusive: 44.7 µM | inactive
O=C1OC2(c3ccccc31)c1cc(Br)c(O)c(Br)c1Oc1c2cc(Br)c(O)c1Br | inconclusive: 42.4 µM | inactive

Biological target: Cellular tumor antigen p53 (Homo sapiens) (UniProt P04637)
Test: TOX21_p53_BLA_p5_ratio: Tox21 HCT-116 p53 Agonism Beta-lactamase Assay, Ratio, Phase 5 (AID 2283599)
Outline: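 Beta-lactamase reporter ratio (blue 460 nm over green 530 nm, 405 nm excitation) after 2 h CCF4-AM loading, in HCT-116 cells exposed 16 h at 37 C to compounds pinned at 217-fold dilution. Increases relative to DMSO baseline scored.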

Structure (SMILES) | AC50 | outcome
O=c1n(CC2CO2)c(=O)n(CC2CO2)c(=O)n1CC1CO1 (stereo not drawn) | active: 32.2 µM and active: 10.7 µM and active: 22.6 µM | 
Cc1ccc(S(=O)(=O)NCl)cc1 | inconclusive: 44.8 µM | 
CCCCCCCCN(C)CCCCCCCC | inconclusive: 46.5 µM | 
CCCCOC(=O)CCCCCCCCC(=O)OCCCC | inconclusive: 32.2 µM | 
O=C1CCCC1 | inconclusive: 46.1 µM | 
CCC(C)(C)C(=O)O[C@H]1C[C@@H](C)C=C2C=C[C@H](C)[C@H](CC[C@@H]3C[C@@H](O)CC(=O)O3)[C@H]21 |  | inactive
COc1ccc2[nH]cc(CCNC(C)=O)c2c1 | inconclusive: 46.7 µM and inconclusive: 23 µM | 
NC(=O)NN=Cc1ccc([N+](=O)[O-])o1 | inconclusive: 45.2 µM and inconclusive: 40.7 µM | inactive
CCCCCCCCCCCCCCCCCCOS(=O)(=O)O |  | inactive
